Measurements published in PubChem BioAssay AID504444 (National Center for Advancing Translational Sciences (NCATS), 2011).
Hit rate of the full screen: of about 360,000 compounds, about 7,500 (2.1%) were called active. Inconclusive results, whose numbers are uncertain, are shown with a selection of clear calls. Calls follow the shape of the dose curve; as a rule, active = well fitted inhibition curve with a large enough effect; inconclusive = small, poorly fitted or top-dose-only effect, or effect the other way; inactive = flat fitted curve, though single readings scatter. Potencies of inconclusive entries are doubtful fits and often do not repeat.
Potency is read from the fitted curve at half-maximal effect.

Assay: Nrf2 qHTS screen for inhibitors; also: nearly all actives have a fitted effect of over 60% in size
Conditions: A549 ARE-Fluc reporter, luciferase luminescence, 18-24 h; series mostly up to 46 µM
Summary of the method: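 Reporter: ARE-Fluc in A549. Exposure: 18-24 h, 37 °C, 5% CO2, 5% FBS OPTI-MEM. Readouts: fluorescent cytotoxicity (CellTiter-Fluor), then luminescent Nrf2 signal after BugLite.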
With O=C(Cn1ncc2c(=O)oc3ccccc3c21)NCC1COc2ccccc2O1 (centres undefined) the Potency was inconclusive: 1.64 µM [falling, partial curve]. In the case of CCN(CC)c1ccc(NC(=O)c2cc3c(=O)n4cccc(C)c4nc3n2C)c(C)c1, the Potency is reported as “inactive”. For CCOC(=O)CSc1nn(C)c(=S)s1, the Potency was “inactive”. In the case of CCC(=O)c1ccc(OCC(=O)Nc2ccc3c(c2)OCCO3)cc1, the Potency is reported as inconclusive: 4.61 µM [activator, full curve]. With CCCCN1C(C)=CC(=C2C(=O)c3ccccc3C2=O)C=C1C the Potency was inconclusive: 0.291 µM [activator, full curve]. In the case of CC1CC(C)CN(C(=O)C2CCN(S(=O)(=O)c3cccc4cccnc34)CC2)C1 (centres undefined), the Potency is reported as inconclusive: 2.06 µM [falling, partial curve, poor fit]. For O=C(Nc1ccc2nc(-c3cccs3)c(-c3cccs3)nc2c1)N1CCCCC1, the Potency was “inactive”. For COCC1CCN(Cc2nc(-c3cccs3)no2)C1 (centres undefined), the Potency was inconclusive: 10.3 µM [activator, partial curve]. For CCn1nc(C)c2c(-c3ccccc3)cc(=O)n(C(C)C(=O)NCc3ccc(C)cc3)c21 (centres undefined), the Potency was inconclusive: 29.1 µM [falling, single point]. In the case of Cc1cc(C)c(NC(=O)c2ccccc2CCc2ccccc2)c(C)c1, the Potency is reported as inconclusive: 11.6 µM [falling, partial curve]. With O=C(COc1ccccc1Br)c1ccc2c(c1)OCO2 the Potency was inconclusive: 7.31 µM [activator, partial curve, poor fit]. For O=c1c2oc3ccccc3c2[nH]c(=S)n1-c1ccc(F)cc1, the Potency was inconclusive: 14.6 µM [falling, single point]. With COc1ccc(-c2c(C#Cc3ccccc3)c3ccccc3n2C)cc1 the Potency was inconclusive: 13 µM [activator, partial curve, poor fit]. For CCOC(=O)N1CCN(C(=O)COc2ccc(Br)cc2Cl)CC1, the Potency was inconclusive: 20.6 µM [falling, single point]. In the case of CCNCc1ccc(OCc2ccccc2F)c(OC)c1, the Potency is reported as inconclusive: 3.26 µM [activator, full curve, poor fit]. For CC(C)c1ccccc1OCC(O)CN(CC(O)COc1cccc2ccccc12)C(C)C (centres undefined), the Potency was inconclusive: 16.4 µM [falling, partial curve]. For COc1ccccc1C(=O)Nc1ccc(S(=O)(=O)N2CCCCC2c2cccnc2)cc1 (centres undefined), the Potency was active: 16.4 µM. For CCOc1ccc(C(C)NC(=O)c2cccc(F)c2)cc1 (centres undefined), the Potency was inconclusive: 29.1 µM [falling, single point]. For COc1ccc(C(=O)/C=C/Nc2ccc(C)cn2)cc1OC, the Potency was inconclusive: 0.326 µM [activator, full curve, poor fit].
